In publication PMC11480334 one finds binding data, which are given here for 4 substances.

By UniProt entry, the sequences of proteins in these tests, tags left out. Where a name states a change or a piece, a line headed by the entry shows the natural chain unless it says otherwise.
UniProt P02828: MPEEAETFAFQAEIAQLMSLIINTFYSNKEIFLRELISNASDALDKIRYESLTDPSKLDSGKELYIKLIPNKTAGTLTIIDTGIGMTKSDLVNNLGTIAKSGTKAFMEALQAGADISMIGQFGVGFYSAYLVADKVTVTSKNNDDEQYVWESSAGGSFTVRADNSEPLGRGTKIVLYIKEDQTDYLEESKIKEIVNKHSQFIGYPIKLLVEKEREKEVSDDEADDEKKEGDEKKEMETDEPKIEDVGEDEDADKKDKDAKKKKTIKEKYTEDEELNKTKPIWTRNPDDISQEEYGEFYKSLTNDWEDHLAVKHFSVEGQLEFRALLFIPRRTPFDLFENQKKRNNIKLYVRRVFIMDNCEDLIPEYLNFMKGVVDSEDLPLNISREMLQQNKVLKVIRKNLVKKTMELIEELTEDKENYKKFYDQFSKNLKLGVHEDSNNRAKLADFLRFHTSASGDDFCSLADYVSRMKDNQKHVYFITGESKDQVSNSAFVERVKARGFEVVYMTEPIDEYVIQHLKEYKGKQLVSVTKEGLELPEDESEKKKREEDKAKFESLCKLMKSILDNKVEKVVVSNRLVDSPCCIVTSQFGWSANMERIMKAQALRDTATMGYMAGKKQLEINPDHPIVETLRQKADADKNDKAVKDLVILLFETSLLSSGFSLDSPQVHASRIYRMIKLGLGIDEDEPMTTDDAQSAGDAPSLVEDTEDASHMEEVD
UniProt P46461: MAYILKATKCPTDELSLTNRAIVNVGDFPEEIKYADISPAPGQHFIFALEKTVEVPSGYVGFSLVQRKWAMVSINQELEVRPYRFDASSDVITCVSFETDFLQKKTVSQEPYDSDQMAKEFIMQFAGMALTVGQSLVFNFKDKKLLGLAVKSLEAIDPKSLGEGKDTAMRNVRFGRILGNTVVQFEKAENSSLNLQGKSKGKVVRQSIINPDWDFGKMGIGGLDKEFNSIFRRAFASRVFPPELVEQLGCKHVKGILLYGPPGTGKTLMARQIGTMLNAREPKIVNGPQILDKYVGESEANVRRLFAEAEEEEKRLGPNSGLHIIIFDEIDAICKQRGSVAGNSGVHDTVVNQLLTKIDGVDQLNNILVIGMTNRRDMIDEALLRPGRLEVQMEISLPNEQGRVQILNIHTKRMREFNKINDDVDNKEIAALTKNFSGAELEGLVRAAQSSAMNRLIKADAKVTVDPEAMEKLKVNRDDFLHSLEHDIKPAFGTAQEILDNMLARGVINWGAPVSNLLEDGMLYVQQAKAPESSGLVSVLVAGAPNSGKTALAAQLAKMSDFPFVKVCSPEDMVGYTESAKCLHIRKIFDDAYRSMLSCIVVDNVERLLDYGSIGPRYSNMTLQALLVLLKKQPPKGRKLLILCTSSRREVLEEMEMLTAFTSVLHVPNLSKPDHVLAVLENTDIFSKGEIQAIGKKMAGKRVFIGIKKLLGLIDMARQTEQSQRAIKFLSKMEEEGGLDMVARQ
UniProt Q9VAC1: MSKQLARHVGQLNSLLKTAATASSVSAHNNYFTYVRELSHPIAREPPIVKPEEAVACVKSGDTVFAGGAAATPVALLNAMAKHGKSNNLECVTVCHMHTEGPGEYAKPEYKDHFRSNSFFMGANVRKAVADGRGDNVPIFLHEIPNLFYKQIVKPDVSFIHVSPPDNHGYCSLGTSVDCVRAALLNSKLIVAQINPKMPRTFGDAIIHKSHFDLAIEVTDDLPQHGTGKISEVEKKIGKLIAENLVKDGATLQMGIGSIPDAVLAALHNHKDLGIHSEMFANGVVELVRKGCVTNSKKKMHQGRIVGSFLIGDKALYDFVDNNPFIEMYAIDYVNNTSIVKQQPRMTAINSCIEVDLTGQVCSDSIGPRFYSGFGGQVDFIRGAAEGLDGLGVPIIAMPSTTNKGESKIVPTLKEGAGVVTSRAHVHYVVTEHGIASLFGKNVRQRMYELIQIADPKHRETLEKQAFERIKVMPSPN
UniProt P06754: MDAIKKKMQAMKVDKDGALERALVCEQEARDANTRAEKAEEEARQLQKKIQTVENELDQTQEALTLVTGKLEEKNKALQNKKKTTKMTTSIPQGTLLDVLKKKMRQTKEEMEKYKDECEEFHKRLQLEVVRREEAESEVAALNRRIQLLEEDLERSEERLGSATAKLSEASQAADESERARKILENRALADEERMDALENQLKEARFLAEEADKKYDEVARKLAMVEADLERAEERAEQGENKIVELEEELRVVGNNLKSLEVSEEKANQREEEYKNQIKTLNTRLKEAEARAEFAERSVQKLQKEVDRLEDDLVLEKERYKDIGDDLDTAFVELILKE

Results are given in words; binding and its absence hold for the method and conditions named. In cells and extracts the contact can be indirect. These calls come from enrichment with a bait or labelling near it, and not all partners need be listed. Sequences can lack the tags named with a protein.

For the experiment, the target named is T1, mCherry-tagged Hdc (histidine decarboxylase), expressed in fly photoreceptor cells (Drosophila) (UniProt Q05733).
T1 sequence: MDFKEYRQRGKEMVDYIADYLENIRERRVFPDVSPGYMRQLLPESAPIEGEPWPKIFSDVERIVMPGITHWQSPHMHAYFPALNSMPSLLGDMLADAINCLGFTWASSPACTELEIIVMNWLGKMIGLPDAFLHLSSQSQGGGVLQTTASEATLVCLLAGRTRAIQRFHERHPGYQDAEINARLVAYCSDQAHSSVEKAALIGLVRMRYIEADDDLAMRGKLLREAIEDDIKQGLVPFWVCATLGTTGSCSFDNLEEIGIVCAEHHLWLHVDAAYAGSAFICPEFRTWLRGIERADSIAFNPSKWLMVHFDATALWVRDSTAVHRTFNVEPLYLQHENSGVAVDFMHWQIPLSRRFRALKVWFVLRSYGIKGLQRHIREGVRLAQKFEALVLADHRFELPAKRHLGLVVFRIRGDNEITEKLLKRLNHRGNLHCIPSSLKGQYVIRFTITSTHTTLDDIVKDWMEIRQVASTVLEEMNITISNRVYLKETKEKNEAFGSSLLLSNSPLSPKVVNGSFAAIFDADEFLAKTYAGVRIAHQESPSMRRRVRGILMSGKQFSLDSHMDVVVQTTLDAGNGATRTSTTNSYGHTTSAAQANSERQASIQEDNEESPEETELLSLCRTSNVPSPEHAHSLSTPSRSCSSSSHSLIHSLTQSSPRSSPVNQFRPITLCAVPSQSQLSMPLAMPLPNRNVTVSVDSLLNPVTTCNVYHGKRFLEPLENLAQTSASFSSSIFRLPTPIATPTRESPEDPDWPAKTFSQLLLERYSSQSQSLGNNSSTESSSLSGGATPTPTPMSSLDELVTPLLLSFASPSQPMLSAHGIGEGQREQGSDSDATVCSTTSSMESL
Nature of the experiment: affinity purification with mass spectrometry; heads of about 500 flies expressing mCherry-tagged Hdc or mCherry, lysed in 50 mM Tris-HCl pH 7.5, 150 mM NaCl, 1% NP-40; RFP agarose beads (RFP-Trap) 2 h at 4 °C; silver-stained bands cut out for mass spectra.
Regarding “Hsp83, endogenous in fly heads (from UniProt P02828 1-717)”, the binding entry is listed as “binds”.

For “NSF1 (N-ethylmaleimide-sensitive fusion protein 1), endogenous in fly heads (from UniProt P46461 1-745)”, the binding entry was “binds”. Then “CG7920, endogenous in fly heads (from UniProt Q9VAC1)”, with “binds”. For “Tm1, endogenous in fly heads (from UniProt P06754 1-339)”, the binding result is “binds”.
